The results in this text go back to patent US20240252596A1, “Injectable Polymeric Biopharmaceutical Formulations” (The Board of Trustees of the Leland Stanford Junior …, priority 2023, published 2024).

Series [1] in a line: Parameters of liquid carriers (density, viscosity, vapor pressure).
Series [2] can be described thus: Liquid carrier studies: suspension performance of BSA/MoNi (5%) microparticles at 460 mg/mL.

Structures are written as SMILES.

Turning to `CC(=O)N(C)C` [Dimethyl acetamide (DMAc), N,N-dimethylacetamide], the “Viscosity (@25 C.)” value in series [1] came out at 0.92. For the same molecule, the “Suspension Performance” value in series [2] is reported as “+”.
